This is one part of the list. Shown are side measurements of this screen, not its main read-out; they come without a call. The list favours compounds with an active or inconclusive main result. The note in brackets gives the kind of curve behind each potency; many fits are weak.
Assay: qHTS Assay for Lipid Storage Modulators in Drosophila S3 Cells;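 on cell number change: cells counted by Cell Tracker Red CMTPX staining in the red channel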
Details: BODIPY lipid droplet fluorescence, 18-24 h; for cell number change: measured here: cell count max response, cells fed with added oleic acid
Method in brief: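 Drosophila S3 cells got compounds at several concentrations plus oleic acid (400 uM solution). Laser-scanning cytometry with 488 nm excitation read lipid droplets at 500-530 nm and cells at 575-640 nm. Percent activity was relative to 20 uM Triacsin C.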

[1] = measured here: cell number channel AC50, cells fed with added oleic acid
[2] = measured here: lipid fluorescence (Fed channel) AC50, cells fed with added oleic acid

SMILES	AC50 [1]	AC50 [2]	cell number change [%]
CCOc1cc2[nH]c(=S)n(Cc3ccc(C(=O)NCCOC)cc3)c(=O)c2cc1OCC	1.16 µM [rising, partial curve]	1.84 µM [rising, full curve]	
Cc1cc(C)nc(NC(=O)CN2C(=O)c3ccccc3C2=O)n1		6.51 µM [rising, single point]	7.71
CCOc1ccc(CCNC(=O)c2nnn(CC(=O)Nc3ccc(C)cc3)c2N)cc1OCC		6.51 µM [falling, single point]	0.295
COc1ccc(NC(=O)CSc2ncnc3c2cnn3Cc2ccccc2)cc1OC	0.461 µM [rising, full curve]	2.31 µM [rising, partial curve]	44.2
O=C(Oc1c(Cl)cc(Cl)c2cccnc12)N1CCOCC1		0.366 µM [rising, full curve, poor fit]	-3.59
COc1ccc(NC(=O)CSCc2cc(=O)n3cc(C)sc3n2)cc1	0.13 µM [rising, full curve, poor fit]	0.58 µM [rising, single point]	11
COCCn1c(=O)[nH]c2cc(C(=O)N3CCN(c4cccc(C)c4C)CC3)ccc2c1=O		3.66 µM [falling, full curve]	7.26
C=CCNC(=S)NC(CC(=O)OC)c1ccc2c(c1)OCO2 (stereo not drawn)	7.31 µM [rising, single point]	6.51 µM [rising, single point]	
CS(=O)(=O)c1ccc(-c2cn3cc(C(=O)O)ccc3n2)cc1		3.26 µM [rising, partial curve, poor fit]	8.66
CC(=O)c1ccc(N2CCN(CC3CCCCC3)CC2)cc1		3.26 µM [rising, partial curve, poor fit]	7.91
CC(Cc1n[nH]c(=S)o1)c1ccccc1 (stereo not drawn)		3.26 µM [falling, single point]	9.44
CCOC(=O)C1(Cc2cccc(OC)c2)CCN(Cc2ccc3c(c2)OCCO3)CC1	0.092 µM [falling, full curve]	4.11 µM [falling, partial curve, poor fit]	-43.1
Cc1cccc(C(=O)Oc2ccccc2C(=O)N2CCOCC2)c1			-22.6
Cc1ccc2cccc(OCc3ccc(F)cc3)c2n1			-5.29
CCOC(=O)N1CC=C2C(C#N)=C(N)C(C#N)(C#N)[C@H](c3ccsc3)[C@H]2C1		3.66 µM [rising, single point]	-18.4
O=C(c1ccccn1)N(Cc1ccco1)C1(C(=O)NC2CCCCC2)CCCCC1	0.0651 µM [falling, full curve, poor fit]		-24.9
COc1ccc(CC(=O)N(C)Cc2cccc(OC)c2OC)cc1S(=O)(=O)N1CCOCC1	32.6 µM [falling, single point]		-34.7
Cc1ccc(SCC(=O)c2ccc[nH]2)cc1			34.3
Brc1ccc(Oc2nsnc2N2CCOCC2)cc1		4.61 µM [rising, full curve, poor fit]	11.8

SMILES	AC50 [1]	AC50 [2]	cell number change [%]
O=C(c1ccccc1)c1cc2ccccc2oc1=O	6.51 µM [rising, single point]		
CCOc1cccc(=O)c2c(C)n(Cc3ccccc3)c(C)c12	32.6 µM [rising, single point]		31.7
COCC(=O)Nc1ccc(S(=O)(=O)Nc2nccs2)cc1		0.517 µM [rising, full curve, poor fit]	6.74
CC(=O)n1cc(N(C(=O)CCl)c2ccc(Cl)cc2)c2ccccc21	32.6 µM [falling, partial curve, poor fit]		-52
O=C(Nc1ccc2c(c1)Cc1ccccc1-2)c1ccco1	0.651 µM [rising, partial curve]		
O=C1Nc2cc(C(=O)NCCCN3CCOCC3)ccc2S/C1=C/c1cccc(Cl)c1		18.4 µM [rising, single point]	-8.26
Cc1ccc(NC(=O)Cn2nc(C(=O)O)c3ccccc3c2=O)cc1S(=O)(=O)N1CCOCC1		0.326 µM [rising, full curve, poor fit]	-16.4
CCOc1ccc(CCNC(=O)CCc2nnc3ccc(N4CCOCC4)nn23)cc1		29.1 µM [rising, single point]	19.6
COc1ccc(-n2c(=S)[nH]c3cc(C(=O)NCCCN4CCCC4=O)ccc3c2=O)c(OC)c1	29.1 µM [rising, single point]	29.1 µM [rising, single point]	30.9
O=C(Nc1cccc(Br)c1)c1ccc2snnc2c1		29.1 µM [falling, single point]	
O=C(CSc1nnnn1-c1ccccc1)Nc1nc(-c2ccccc2)ns1	16.4 µM [rising, partial curve]	6.51 µM [rising, single point]	99.8
COc1ccc(CN2CCN(Cc3ccc(CO)o3)CC2CCO)cc1C (stereo not drawn)			11
NN/C(=C\[N+](=O)[O-])Nc1ccc(Cl)cc1			39.3
COc1ccc(C(C)=O)cc1CSc1nnc(Nc2c(C)cccc2C)s1	0.731 µM [rising, single point]		
CCOC(=O)/C=C1\SCC(=O)N1CC(=O)NCc1cccc(Cl)c1		7.31 µM [rising, partial curve, poor fit]	16.3
COc1ccc([N+](=O)[O-])cc1NC(=O)c1csc(C)c1	25.9 µM [rising, single point]		34.6
CC1=NN(C(=O)c2nn(C)cc2Br)C(O)(C(F)(F)F)C1 (stereo not drawn)		0.0291 µM [rising, full curve, poor fit]	12.6
N=C1CCC(=N)c2c1c(O)c1ccccc1c2O		20.6 µM [falling, single point]	6.06
O=C(/C(=C/c1cccc(Cl)c1)c1nc2ccccc2[nH]1)c1ccccc1		14.6 µM [falling, partial curve]	

A draw from above in order of count of non-hydrogen atoms, falling:
SMILES	AC50 [1]	AC50 [2]	cell number change [%]
COc1ccc(-n2c(=S)[nH]c3cc(C(=O)NCCCN4CCCC4=O)ccc3c2=O)c(OC)c1	29.1 µM [rising, single point]	29.1 µM [rising, single point]	30.9
CCOc1ccc(CCNC(=O)CCc2nnc3ccc(N4CCOCC4)nn23)cc1		29.1 µM [rising, single point]	19.6
COc1ccc(CN2CCN(Cc3ccc(CO)o3)CC2CCO)cc1C (stereo not drawn)			11
O=C(/C(=C/c1cccc(Cl)c1)c1nc2ccccc2[nH]1)c1ccccc1		14.6 µM [falling, partial curve]	
CC(=O)n1cc(N(C(=O)CCl)c2ccc(Cl)cc2)c2ccccc21	32.6 µM [falling, partial curve, poor fit]		-52
CCOc1cccc(=O)c2c(C)n(Cc3ccccc3)c(C)c12	32.6 µM [rising, single point]		31.7
O=C(Nc1ccc2c(c1)Cc1ccccc1-2)c1ccco1	0.651 µM [rising, partial curve]		
COc1ccc([N+](=O)[O-])cc1NC(=O)c1csc(C)c1	25.9 µM [rising, single point]		34.6
O=C(Nc1cccc(Br)c1)c1ccc2snnc2c1		29.1 µM [falling, single point]	
N=C1CCC(=N)c2c1c(O)c1ccccc1c2O		20.6 µM [falling, single point]	6.06
NN/C(=C\[N+](=O)[O-])Nc1ccc(Cl)cc1			39.3

(listing goes on)

SMILES	AC50 [1]	AC50 [2]	cell number change [%]
C/C(=N\NC(=O)CSc1nc2ccccc2o1)c1cccc(O)c1		10.3 µM [falling, partial curve]	-29.8
O=C(Cc1cn2ccsc2n1)Nc1ccccc1Oc1ccccc1		10.3 µM [rising, partial curve]	10.2
Cn1c(=NC(=O)CS(=O)(=O)c2ccccc2)sc2ccccc21	6.51 µM [rising, single point]		
O=C(NCc1cccnc1)Nc1cccc(C(F)(F)F)c1		29.1 µM [falling, single point]	4.95
C=C(C)[C@@H]1CC[C@]2(C(=O)O)CC[C@]3(C)[C@H](CC[C@@H]4[C@@]5(C)CC[C@H](O)C(C)(C)[C@@H]5CC[C@]43C)[C@@H]12	3.26 µM [falling, full curve]		-31.4
N#CCCn1cc(/C=N/NC(N)=S)c(-c2ccc(Br)cc2)n1	0.164 µM [falling, full curve, poor fit]	0.326 µM [falling, full curve, poor fit]	-23
COC(=O)N/N=C/c1cn(Cc2ccccc2F)c2ccccc12	4.11 µM [rising, full curve]		31.2
CCc1ccccc1-n1nnnc1-c1cnccc1C(F)(F)F	2.91 µM [falling, partial curve]	5.17 µM [falling, single point]	24.1
Cc1ccc(CS(=O)(=O)c2ncc(Cl)c(C(=O)Nc3ccc(OC(F)F)cc3)n2)cc1		2.59 µM [falling, full curve]	
CC(=O)Nc1ccc(OC(=O)Oc2ccc(NC(C)=O)cc2)cc1	1.46 µM [rising, partial curve]	2.06 µM [rising, partial curve]	
CC(C)C(NC(=O)c1ccccc1F)C(=O)OCC(=O)c1ccc(F)cc1 (stereo not drawn)	0.0517 µM [falling, partial curve, poor fit]		-15.5
CC1CCCN(C2(O)C(=O)Nc3ccc(Cl)cc32)C1 (stereo not drawn)		2.59 µM [rising, single point]	22.5
COc1cc(NC(=O)CSc2nc(=O)n(CCCN3CCOCC3)c3c2CCC3)cc(OC)c1	0.366 µM [rising, full curve, poor fit]		25
C=CCOC(=O)C1=C(C)NC(SCC(=O)Nc2ccccc2)=C(C#N)C1c1ccco1 (stereo not drawn)	4.61 µM [falling, partial curve]	10.3 µM [falling, partial curve]	-78.8
O=C(CSc1nnc(CN2CCCCCC2=O)n1-c1ccccn1)NCC(F)(F)F	5.17 µM [falling, single point]	29.1 µM [falling, single point]	-53.5
COC(=O)Cn1c(CN(C)Cc2ccccc2)nc2c1c(=O)n(C)c(=O)n2C	14.6 µM [falling, partial curve, poor fit]	0.0231 µM [falling, full curve]	-33.7
Cn1ccnc1-c1ccc(-c2nccn2C)cc1		14.6 µM [falling, single point]	-6.32
COc1ccc(CCNC(=O)C(=O)NCCOc2ccccc2Cl)cc1OC	14.6 µM [falling, partial curve]	0.82 µM [falling, full curve, poor fit]	-83.3
COc1ccc(CNC(=O)C2CCCN2S(=O)(=O)c2ccccc2)cc1 (stereo not drawn)	5.17 µM [rising, full curve]		73.3

3 structures out of the list, arranged by heavy-atom count, largest number first:
SMILES	AC50 [1]	AC50 [2]	cell number change [%]
CCOC(=O)/C=C1\SCC(=O)N1CC(=O)NCc1cccc(Cl)c1		7.31 µM [rising, partial curve, poor fit]	16.3
Cc1cc(C)nc(NC(=O)CN2C(=O)c3ccccc3C2=O)n1		6.51 µM [rising, single point]	7.71
CC(Cc1n[nH]c(=S)o1)c1ccccc1 (stereo not drawn)		3.26 µM [falling, single point]	9.44

Reference: PubChem BioAssay AID2685 (National Center for Advancing Translational Sciences (NCATS), 2010)
